{"source": "patent US20180128837A1", "key": {"[1]": {"target": "T1, ST2/T1 receptor on a mouse mast cell line (wild type mast cells, WTMC) (mouse) (UniProt P14719)", "T1 sequence": "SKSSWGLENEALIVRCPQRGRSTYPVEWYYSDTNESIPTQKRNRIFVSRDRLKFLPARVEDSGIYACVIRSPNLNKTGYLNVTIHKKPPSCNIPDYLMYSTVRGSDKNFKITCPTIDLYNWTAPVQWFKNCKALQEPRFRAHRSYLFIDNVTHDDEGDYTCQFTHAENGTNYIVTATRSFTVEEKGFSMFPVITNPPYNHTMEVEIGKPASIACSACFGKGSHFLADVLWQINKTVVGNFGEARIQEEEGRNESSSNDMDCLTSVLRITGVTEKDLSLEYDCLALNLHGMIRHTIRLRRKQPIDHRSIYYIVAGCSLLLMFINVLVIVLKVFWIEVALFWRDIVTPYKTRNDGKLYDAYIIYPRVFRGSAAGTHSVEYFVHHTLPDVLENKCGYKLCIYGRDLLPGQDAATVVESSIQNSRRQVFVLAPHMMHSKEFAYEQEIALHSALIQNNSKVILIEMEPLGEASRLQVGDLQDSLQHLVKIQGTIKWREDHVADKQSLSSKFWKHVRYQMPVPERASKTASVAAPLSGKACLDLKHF", "assay": "competition with anti-T1/ST2 antibody on wild type mast cells (WTMC)"}, "[2]": {"target": "T1, ST2/T1 receptor on a mouse mast cell line (wild type mast cells, WTMC) (mouse)", "assay": "flow cytometry, competition with the ST2/T1-specific monoclonal antibody on a mouse mast cell line"}}, "note": "No constants are given. Whether binding was seen depends on the method and setting. A result given as binding can be weak or reduced; the word gives no strength."}
{"substance": "IL-33 protein (species not stated in the mast cell competition experiment) (ligand)", "values": [{"measurement": "binding", "setting": "[1]", "value": "binds"}, {"measurement": "binding", "setting": "[2]", "value": "binds"}]}
